Data taken from patent EP4800027A1.

Biological target: RKL1 (leucine-rich repeat receptor-like kinase)
Test: yeast two-hybrid, firefly luciferase complementation and bimolecular fluorescence complementation, FIG. 5

B1: GbVIPR1L protein (virus-induced proline-rich protein 1-like protein) (protein)
chain: MIPQQMKEAFQSYIAFKSDSSPFSRMAKSTPALSEFDNYHKAKVSSLEEPSKSKSKTIKELVTMSSKLDSLEKGESFLREKIQAQKLKYNDKPDSLRQSNGEAFQKYLEDTTKNLIKAMPNLKANLVLHA
B1 was tested, and the binding was “binds”.

These are yes or no findings as the source states them, for the method shown. Binding can be weak; no strength is given.
